# Only a part is listed here, and it is no random draw. At the low end of the ranking, values are background and their order means little.
# By UniProt entry, the sequences of proteins in these tests, tags left out. Where a name states a change or a piece, a line headed by the entry shows the natural chain unless it says otherwise.
# UniProt O43186: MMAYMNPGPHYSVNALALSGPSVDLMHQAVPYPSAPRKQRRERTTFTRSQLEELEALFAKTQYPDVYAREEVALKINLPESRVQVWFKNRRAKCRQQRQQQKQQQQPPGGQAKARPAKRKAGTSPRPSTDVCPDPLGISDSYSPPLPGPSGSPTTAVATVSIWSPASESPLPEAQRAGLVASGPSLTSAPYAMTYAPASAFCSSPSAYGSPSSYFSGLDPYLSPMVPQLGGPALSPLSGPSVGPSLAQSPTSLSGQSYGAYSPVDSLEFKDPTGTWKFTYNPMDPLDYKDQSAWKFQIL
# What was measured:
# [1] = molecular target: CRX (UniProt O43186); assay: DAPPL (digital affinity profiling via proximity ligation, sequencing); conditions: 10 mM Tris-HCl pH 7.5, 50 mM NaCl, 1 mM DTT, 4% glycerol, room temperature, 30 min; GST-TFs on glutathione beads, 16-mer random dsDNA library, 0.1% …; high values mean tight binding; double strand, one strand shown; scale: fold enrichment (6-mer frequency, TF over GST control)
# [2] = molecular target: T1, ELF5 (UniProt Q9UKW6-2); assay: as above; conditions: 10 mM Tris-HCl pH 7.5, 50 mM NaCl, 1 mM DTT, 4% glycerol, room temperature, 30 min; GST-TFs on glutathione beads, 16-mer random dsDNA library, 0.1% …; high values mean tight binding; double strand, one strand shown; scale: fold enrichment (6-mer frequency, TF over GST control)
# T1 sequence: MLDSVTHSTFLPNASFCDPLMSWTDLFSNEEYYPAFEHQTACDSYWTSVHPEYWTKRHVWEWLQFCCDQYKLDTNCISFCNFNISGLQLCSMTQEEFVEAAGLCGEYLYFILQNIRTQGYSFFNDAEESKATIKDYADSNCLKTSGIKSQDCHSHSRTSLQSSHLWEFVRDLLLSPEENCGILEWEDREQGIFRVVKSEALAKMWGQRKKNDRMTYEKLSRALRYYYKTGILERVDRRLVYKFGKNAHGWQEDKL
sequence,measurement,setting,value
TGGCAA,binding signal,[1],1.07
GCACTT,binding signal,[1],1.16
CAATTG,binding signal,[1],0.97
TTATCA,binding signal,[1],2.19
GCTTTA,binding signal,[1],1.81
TCGTAC,binding signal,[1],0.958
ATATGA,binding signal,[1],1.02
CCTCCC,binding signal,[1],1.21
GTGGCT,binding signal,[1],1.18
TGCACG,binding signal,[1],0.916
AATGTC,binding signal,[1],1.04
AACAAT,binding signal,[1],1.24
CGCCGA,binding signal,[1],0.985
CTGGTT,binding signal,[1],1.22
AAAATC,binding signal,[1],1.62
same,binding signal,[2],1.15
ACGATC,binding signal,[1],1.14
same,binding signal,[2],1.01
CCGAAG,binding signal,[1],1.11
same,binding signal,[2],0.999
TCTAGT,binding signal,[1],1.37
same,binding signal,[2],1.04
ACTTTG,binding signal,[1],1.18
TTGTGG,binding signal,[1],1.46
same,binding signal,[2],1.32
TACGAT,binding signal,[1],1.37
ATGCAT,binding signal,[1],1.05
same,binding signal,[2],1.15
CCATTG,binding signal,[1],1.02
CGTCCG,binding signal,[1],0.734
same,binding signal,[2],1.44
CCACGC,binding signal,[1],0.903
same,binding signal,[2],1.11
CCGATT,binding signal,[1],2.69
CCTCAC,binding signal,[1],0.892
same,binding signal,[2],1.22
TTAGAA,binding signal,[1],2.08
same,binding signal,[2],0.975
GCCAAT,binding signal,[1],0.943
same,binding signal,[2],0.985
CGACTC,binding signal,[1],1.31
same,binding signal,[2],1.33
TGTAAA,binding signal,[1],1.2
same,binding signal,[2],1.1
CACTCG,binding signal,[1],0.916
same,binding signal,[2],1.05
TACCCT,binding signal,[1],1.45
same,binding signal,[2],1.26
GATTTC,binding signal,[1],1.52
AATGAG,binding signal,[1],1.08
TTTCTC,binding signal,[1],1.67
same,binding signal,[2],1.56
CTTTTC,binding signal,[1],1.25
TTAAAC,binding signal,[1],2.58
same,binding signal,[2],1.18
TACATC,binding signal,[1],1.17
same,binding signal,[2],1.81
CTAATC,binding signal,[1],5.33
TAATCT,binding signal,[1],5.78
ACTCCC,binding signal,[1],1.13
same,binding signal,[2],1.38
CGAAGC,binding signal,[1],1.19
ACCGGA,binding signal,[1],0.861
CTTCAA,binding signal,[1],1.22
same,binding signal,[2],1.32
CAATCA,binding signal,[1],0.996
same,binding signal,[2],1.1
CTTATC,binding signal,[1],2.44
same,binding signal,[2],1.17
TTGTCT,binding signal,[1],1.15
same,binding signal,[2],1.26
GTCCCT,binding signal,[1],0.939
same,binding signal,[2],1.23
ACCGAA,binding signal,[1],1.08
same,binding signal,[2],0.993
AAAAAA,binding signal,[1],1.22
same,binding signal,[2],1.29
TGGACC,binding signal,[1],0.834
same,binding signal,[2],0.996
CGGCTC,binding signal,[1],1.26
same,binding signal,[2],1.27
CTTACC,binding signal,[1],1.58
same,binding signal,[2],1.39
ACCGTC,binding signal,[1],0.903
same,binding signal,[2],1.08

# Four neighbouring records from above, for reference:
sequence,measurement,setting,value
TAATCT,binding signal,[1],5.78
ACTCCC,binding signal,[1],1.13
same,binding signal,[2],1.38
CGAAGC,binding signal,[1],1.19
